Data reported in PubChem BioAssay AID493014 (National Center for Advancing Translational Sciences (NCATS), 2011).
The other results are listed elsewhere or left out. Shown are side measurements of this screen, not its main read-out; they come without a call. Compounds called inactive in the main read-out are mostly missing here. The note in brackets gives the kind of curve behind each potency; many fits are weak.

Assay: qHTS Assay to Find Inhibitors of Chronic Active B-Cell Receptor Signaling
Details: ABC-DLBCL IkBa-CBG/CBR reporter, luminescence ratio (green luciferase fused to IkBa over red control in TMD8 lymphoma cells), 4 h
Outline: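 Compounds up to 46 uM were incubated four hours with TMD8 cells whose green CBG68 luciferase is fused to IkappaBalpha; red CBR luminescence normalised the signal, and concentration-effect curves were fitted to fusion, red and ratio data.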

[1] = measured here: CBR red luminescence, cell number
[2] = measured here: IkBa-CBG green luminescence

Row | Structure (SMILES) | AC50 [1] | AC50 [2]
1 | O=C(NCc1ccc(Cl)cc1)C1CCC(CNc2c(N3CCCCC3)c(=O)c2=O)CC1 (stereo not drawn) | 0.164 µM [rising, full curve, poor fit] | –
2 | COc1ccc(Cc2noc(CN3CCN(C4CCc5ccccc5C4)CC3)n2)cc1OC (stereo not drawn) | 35.5 µM [falling, single point] | –
3 | COCCN1C(=O)N[C@@H](c2cccc(F)c2)C(C(=O)OC)=C1C | 20 µM [rising, partial curve, poor fit] | –
4 | CCc1ccc(NC(=O)COn2nnc3ccc(S(=O)(=O)N(C)C)cc32)cc1 | 20.6 µM [falling, partial curve, poor fit] | –
5 | O=c1[nH]c(SCc2ccc([N+](=O)[O-])cc2)nc2[nH]ncc12 | 8.91 µM [rising, partial curve, poor fit] | –
6 | COc1cccc2sc3ccc(NCCC4CCCN4C)cc3c(=O)c12 (stereo not drawn) | 6.31 µM [falling, partial curve] | –
7 | O=C(O)c1ccc(Nc2nc3ccc(Cl)cc3[nH]2)cc1 | 0.562 µM [falling, full curve] | –
8 | O=C(CCc1nc(-c2ccccc2)no1)NC1CCCCC1 | 0.517 µM [rising, full curve, poor fit] | –
9 | O=C(CN1CC(=O)Oc2ccccc21)OCC(=O)c1cccc(Br)c1 | 10 µM [falling, partial curve, poor fit] | –
10 | C/C(=N\NC(=O)c1ccccc1C)c1ccc(N2CCOCC2)cc1 | 14.6 µM [falling, partial curve] | –
11 | O=C(CNC(=O)c1ccco1)OCc1ccc(C(=O)Oc2ccccc2)cc1 | 29.1 µM [rising, single point] | –
12 | C=C(C)C1CC=C(C)/C(=N\NC(=O)CNc2ccccc2OC)C1 (stereo not drawn) | 7.31 µM [falling, partial curve] | –
13 | COc1ccc2oc(C)c(C(=O)Cn3ccnc3)c2c1 | 2.59 µM [falling, full curve, poor fit] | –
14 | O=C(CSc1cccc[n+]1[O-])Nc1cc2c(cc1Cl)C(=O)c1ccccc1C2=O | – | 29.1 µM [falling, single point]
15 | O=C(O)c1ccc(-n2nnnc2SCc2ccccc2Br)cc1 | 20 µM [rising, partial curve, poor fit] | –
16 | NC(=O)[C@H]1CC2(CC(c3cccc(NC(=O)COc4ccc(Cl)cc4)c3)=NO2)CN1C(=O)C(c1ccccc1)c1ccccc1 (stereo partly drawn) | 5.01 µM [falling, full curve] | –
17 | Cc1cc(Sc2ncnc(N)c2[N+](=O)[O-])ncn1 | 7.94 µM [falling, partial curve] | 35.5 µM [rising, single point]
18 | COc1ccc(N=C(C)c2sc3ccccc3c2O)cc1 | 2.51 µM [rising, full curve] | –
19 | CC(C)NC(=O)CN1CCN(C(=O)c2ccc3oc(CCCc4ccccc4)nc3c2)CC1 | 6.31 µM [falling, partial curve] | –
20 | COc1cc(C(=O)Nc2ccc3c(c2)nc(C)n3C)cc(OC)c1OC | – | 35.5 µM [falling, single point]
21 | COc1ccc2[nH]c3c(N4CCc5ccccc5C4)ncnc3c2c1 | 12.6 µM [falling, partial curve] | –

Row | Structure (SMILES) | AC50 [1] | AC50 [2]
22 | CCc1nn(CC(=O)N2CCC(C(N)=O)CC2)c(=O)c2cc3occc3n12 | 28.2 µM [rising, single point] | –
23 | CSCC[C@H](NC(=O)[C@@H]1Cc2ccccc2CN1)C(=O)NC1CCCCC1 | 8.91 µM [falling, partial curve, poor fit] | –
24 | Cc1ccc(C)c(Nc2cc(C(=O)NCc3cccnc3)c3ccccc3n2)c1 | 35.5 µM [falling, single point] | –
25 | CCOC(=O)c1nc(S(C)(=O)=O)ncc1Cl | 35.5 µM [falling, single point] | –
26 | CN(C)CCCNCC(=O)c1c(-c2ccccc2)n(C)c2ccccc12 | – | 17.8 µM [falling, single point]
27 | COc1ccccc1C1=NC(c2ccc(C)cc2)N=C1C (stereo not drawn) | 12.6 µM [falling, single point] | –
28 | O=C(Nc1ccc(CN2CCCCC2)cc1)c1cc(Br)ccc1Cl | 0.891 µM [rising, full curve, poor fit] | –
29 | Cc1ccc(CSc2nnc(-c3ccccn3)n2N)cc1 | 7.94 µM [falling, partial curve] | –
30 | Cc1cc(NC2CCCC2)n2nc(C)c(-c3ccccc3)c2n1 | 20 µM [falling, single point] | –
31 | Cc1cc(-c2csc(Nc3ccccn3)n2)ccc1F | 4.47 µM [falling, partial curve] | –
32 | CCOC(=O)c1c(NC(=O)C2C3C=CC(C3)C2C(=O)O)sc2c1CCC(CC)C2 (stereo not drawn) | 29.1 µM [falling, single point] | –
33 | Nc1c(NCCN2CCOCC2)c2ccccc2oc1=O | 11.6 µM [falling, partial curve] | –
34 | Cc1nc(SCC(=O)Nc2nccs2)c(C#N)c(C)c1C | 2.06 µM [falling, partial curve, poor fit] | –
35 | O=C(CNc1cccc2ccccc12)N/N=C/c1ccc[nH]1 | 15.8 µM [rising, single point] | –
36 | CCS(=O)(=O)c1ncc(Cl)c(C(=O)Nc2ccc(S(=O)(=O)N3CCCC(C)C3)cc2)n1 (stereo not drawn) | 22.4 µM [falling, single point] | –
37 | Cc1cc(N2CCN(Cc3cn(C)nc3-c3ccccc3F)CC2)cc(C)n1 | 6.31 µM [falling, partial curve, poor fit] | –
38 | O=C(Nc1ccc(Cl)cc1)Nc1ccccn1 | 1 µM [rising, full curve, poor fit] | –
39 | O=C(NCc1cccs1)C1CC(c2ccc(F)cc2)=NO1 (stereo not drawn) | 11.2 µM [falling, partial curve, poor fit] | –
40 | Cc1cccc(Oc2cc(NC(=O)c3ccccc3)cc([N+](=O)[O-])c2)c1 | 8.91 µM [falling, partial curve, poor fit] | –
41 | O=C(Nc1ccc(Cl)cn1)c1ccc(COc2ccccc2Br)o1 | 35.5 µM [falling, single point] | –
42 | Cc1cc(C)c(NC(=O)CNC(=O)COC(=O)Cc2ccccc2C)c(C)c1 | 32.6 µM [rising, partial curve, poor fit] | –

One compound at a time, from the list above. Values in the order: AC50 [1]	AC50 [2]
COc1cc(C(=O)Nc2ccc3c(c2)nc(C)n3C)cc(OC)c1OC is entered as –	35.5 µM [falling, single point]
O=C(CNc1cccc2ccccc12)N/N=C/c1ccc[nH]1 is entered as 15.8 µM [rising, single point]	–
